From EP0669979B1 (GENENTECH, INC., dated 2005)
Results are given in words; binding and its absence hold for the method and conditions named. A result given as binding can be weak or reduced; the word gives no strength.

Molecular target: protein encoded by the open reading frame US28 of the human cytomegalovirus genome (human cytomegalovirus)
Assay: displacement of 125I-HuMIP-1α by 1 µM cold ligand on 293 cells expressing US28

B1: murine MIP-1α (ligand, UniProt P10855 24-92, looked up)
chain: APYGADTPTACCFSYSRKIPRQFIVDYFETSSLCSQPGVIFLTKRNRQICADSKETWVQEYITDLELNA
binding: binds
